No constants are given. Whether binding was seen depends on the method and setting.
Experiments:
Test in all cases: condition: 0.25 mg/mL per protein, corresponding to approximately 3–6 μM; cross-linking; mixture of eight model proteins in solution, 2 mg/mL total (0.25 mg/mL per protein), citrate-phosphate buffer, eight pH conditions (pH 4.0-7.5), 1 mM DSS (d0/d12) for 30 min at 37 °C; Lys-C/trypsin digest, LC-MS/MS, xQuest (score ≥ 25); both purified
[1] = molecular target: bovine lactotransferrin (bovine) (UniProt P24627)
[2] = molecular target: bovine serotransferrin (bovine) (UniProt Q29443)
[3] = molecular target: bovine serum albumin (bovine) (UniProt P02769)
[4] = molecular target: chicken ovotransferrin (chicken) (UniProt P02789)
[5] = molecular target: rabbit creatine kinase M-type (rabbit) (UniProt P00563)
[6] = molecular target: T1, rabbit fructose-bisphosphate aldolase A (rabbit) (UniProt P00883)
T1 sequence: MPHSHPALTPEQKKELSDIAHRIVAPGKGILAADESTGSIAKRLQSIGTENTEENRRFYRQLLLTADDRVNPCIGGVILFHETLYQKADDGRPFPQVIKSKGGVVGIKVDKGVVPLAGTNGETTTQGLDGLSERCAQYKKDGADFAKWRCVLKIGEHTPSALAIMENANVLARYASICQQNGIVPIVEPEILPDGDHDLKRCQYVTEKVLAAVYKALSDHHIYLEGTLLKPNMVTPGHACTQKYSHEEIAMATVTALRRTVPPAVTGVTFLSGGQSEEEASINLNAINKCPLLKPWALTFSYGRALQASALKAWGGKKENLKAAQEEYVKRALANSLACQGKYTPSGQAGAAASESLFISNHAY

Sequences of proteins named here, by UniProt entry; tags and fusion partners are left off. Residues count along the entry.
UniProt P24627, residues 20-708: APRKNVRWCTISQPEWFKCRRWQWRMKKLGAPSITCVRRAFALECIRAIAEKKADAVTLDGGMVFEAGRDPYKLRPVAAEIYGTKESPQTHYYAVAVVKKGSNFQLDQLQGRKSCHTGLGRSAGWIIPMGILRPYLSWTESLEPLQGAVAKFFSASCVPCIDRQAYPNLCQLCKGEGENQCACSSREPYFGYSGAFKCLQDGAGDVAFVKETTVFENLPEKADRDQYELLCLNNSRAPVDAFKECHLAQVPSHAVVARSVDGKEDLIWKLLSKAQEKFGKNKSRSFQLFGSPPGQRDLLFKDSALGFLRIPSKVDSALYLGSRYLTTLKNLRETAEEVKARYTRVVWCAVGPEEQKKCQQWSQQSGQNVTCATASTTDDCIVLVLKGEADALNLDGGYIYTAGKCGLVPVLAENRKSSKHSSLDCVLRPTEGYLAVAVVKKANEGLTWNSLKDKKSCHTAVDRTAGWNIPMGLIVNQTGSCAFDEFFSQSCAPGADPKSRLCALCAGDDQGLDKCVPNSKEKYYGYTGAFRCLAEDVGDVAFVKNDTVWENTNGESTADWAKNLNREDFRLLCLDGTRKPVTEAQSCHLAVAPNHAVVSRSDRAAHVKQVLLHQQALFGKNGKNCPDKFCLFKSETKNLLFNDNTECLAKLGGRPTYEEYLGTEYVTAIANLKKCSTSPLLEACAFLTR
UniProt Q29443, residues 20-704: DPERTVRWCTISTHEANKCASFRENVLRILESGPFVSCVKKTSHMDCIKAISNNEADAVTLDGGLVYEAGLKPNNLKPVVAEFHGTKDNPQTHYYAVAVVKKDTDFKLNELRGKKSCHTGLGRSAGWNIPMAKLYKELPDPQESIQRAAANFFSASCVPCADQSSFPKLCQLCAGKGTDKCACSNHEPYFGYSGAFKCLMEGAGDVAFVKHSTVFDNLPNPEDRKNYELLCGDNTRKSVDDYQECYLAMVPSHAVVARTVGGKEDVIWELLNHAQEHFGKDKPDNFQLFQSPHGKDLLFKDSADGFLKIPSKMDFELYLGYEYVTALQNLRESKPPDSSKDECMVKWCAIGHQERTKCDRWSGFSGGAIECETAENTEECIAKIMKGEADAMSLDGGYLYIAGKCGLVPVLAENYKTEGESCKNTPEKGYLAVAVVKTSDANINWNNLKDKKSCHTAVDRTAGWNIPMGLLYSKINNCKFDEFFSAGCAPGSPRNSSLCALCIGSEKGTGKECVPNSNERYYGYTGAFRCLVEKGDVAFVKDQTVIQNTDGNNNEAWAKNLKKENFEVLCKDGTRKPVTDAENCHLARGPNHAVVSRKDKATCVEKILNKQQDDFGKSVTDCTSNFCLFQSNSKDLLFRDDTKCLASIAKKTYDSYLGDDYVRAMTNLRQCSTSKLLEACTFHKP
UniProt P02769, residues 25-607: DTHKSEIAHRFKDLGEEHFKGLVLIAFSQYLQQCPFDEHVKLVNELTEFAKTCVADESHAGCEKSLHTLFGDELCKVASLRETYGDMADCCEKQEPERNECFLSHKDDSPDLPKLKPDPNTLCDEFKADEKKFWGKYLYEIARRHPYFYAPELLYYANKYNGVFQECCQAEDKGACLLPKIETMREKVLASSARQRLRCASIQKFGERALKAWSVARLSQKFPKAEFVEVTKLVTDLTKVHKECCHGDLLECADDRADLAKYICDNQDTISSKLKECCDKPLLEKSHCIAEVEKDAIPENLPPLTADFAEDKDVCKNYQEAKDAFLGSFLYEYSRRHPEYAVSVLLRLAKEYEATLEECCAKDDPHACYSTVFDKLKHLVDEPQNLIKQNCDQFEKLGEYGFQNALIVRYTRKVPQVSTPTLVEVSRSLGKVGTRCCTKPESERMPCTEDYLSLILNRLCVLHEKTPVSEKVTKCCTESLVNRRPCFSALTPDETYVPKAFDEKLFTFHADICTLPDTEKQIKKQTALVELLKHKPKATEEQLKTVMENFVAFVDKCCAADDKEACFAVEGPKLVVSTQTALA
UniProt P02789, residues 20-705: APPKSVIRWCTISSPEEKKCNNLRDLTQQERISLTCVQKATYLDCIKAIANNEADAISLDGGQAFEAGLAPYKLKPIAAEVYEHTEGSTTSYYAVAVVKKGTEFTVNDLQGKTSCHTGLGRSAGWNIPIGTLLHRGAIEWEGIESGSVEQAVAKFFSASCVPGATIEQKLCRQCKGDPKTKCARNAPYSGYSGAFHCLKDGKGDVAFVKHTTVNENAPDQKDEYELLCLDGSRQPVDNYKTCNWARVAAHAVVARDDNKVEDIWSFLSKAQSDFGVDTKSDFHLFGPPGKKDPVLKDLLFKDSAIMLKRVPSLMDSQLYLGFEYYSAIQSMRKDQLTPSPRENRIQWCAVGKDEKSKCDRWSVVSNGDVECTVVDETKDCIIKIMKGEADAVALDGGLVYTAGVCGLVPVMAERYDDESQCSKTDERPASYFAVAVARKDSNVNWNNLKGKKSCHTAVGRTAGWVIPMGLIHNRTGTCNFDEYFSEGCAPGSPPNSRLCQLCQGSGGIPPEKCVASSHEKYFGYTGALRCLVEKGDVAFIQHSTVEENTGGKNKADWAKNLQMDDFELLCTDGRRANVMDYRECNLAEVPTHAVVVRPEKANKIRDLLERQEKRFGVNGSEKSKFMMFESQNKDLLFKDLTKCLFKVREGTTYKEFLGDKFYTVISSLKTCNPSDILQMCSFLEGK
UniProt P00563: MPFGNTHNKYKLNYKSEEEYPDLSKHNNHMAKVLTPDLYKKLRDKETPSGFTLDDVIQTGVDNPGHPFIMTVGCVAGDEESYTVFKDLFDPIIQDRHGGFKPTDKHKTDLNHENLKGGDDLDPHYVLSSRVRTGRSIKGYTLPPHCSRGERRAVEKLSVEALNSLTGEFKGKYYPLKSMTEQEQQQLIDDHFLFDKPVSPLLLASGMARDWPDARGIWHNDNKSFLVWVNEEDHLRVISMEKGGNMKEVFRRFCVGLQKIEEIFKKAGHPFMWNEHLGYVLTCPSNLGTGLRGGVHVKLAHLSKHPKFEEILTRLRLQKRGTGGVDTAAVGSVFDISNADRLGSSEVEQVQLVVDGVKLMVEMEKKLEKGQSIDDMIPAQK
UniProt P11974: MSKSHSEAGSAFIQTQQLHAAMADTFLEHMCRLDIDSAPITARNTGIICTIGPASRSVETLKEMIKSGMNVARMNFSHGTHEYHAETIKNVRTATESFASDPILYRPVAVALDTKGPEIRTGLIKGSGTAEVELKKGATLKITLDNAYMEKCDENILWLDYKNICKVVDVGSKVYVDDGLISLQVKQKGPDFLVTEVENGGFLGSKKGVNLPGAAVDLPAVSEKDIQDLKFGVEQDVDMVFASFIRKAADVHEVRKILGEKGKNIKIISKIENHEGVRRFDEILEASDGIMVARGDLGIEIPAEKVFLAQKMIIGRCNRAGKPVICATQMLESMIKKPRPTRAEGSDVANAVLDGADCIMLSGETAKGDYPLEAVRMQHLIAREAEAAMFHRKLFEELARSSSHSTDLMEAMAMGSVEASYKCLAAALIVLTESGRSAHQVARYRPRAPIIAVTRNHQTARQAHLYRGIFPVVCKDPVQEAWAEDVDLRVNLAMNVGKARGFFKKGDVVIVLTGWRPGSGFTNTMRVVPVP

[7] = molecular target: rabbit pyruvate kinase (rabbit) (UniProt P11974)
[8] = molecular target: rabbit pyruvate kinase (rabbit), P11974; conditions: remark: other sources report otherwise

Measured: binding

B1: bovine catalase (enzyme, UniProt P00432 1-527)
chain: MADNRDPASDQMKHWKEQRAAQKPDVLTTGGGNPVGDKLNSLTVGPRGPLLVQDVVFTDEMAHFDRERIPERVVHAKGAGAFGYFEVTHDITRYSKAKVFEHIGKRTPIAVRFSTVAGESGSADTVRDPRGFAVKFYTEDGNWDLVGNNTPIFFIRDALLFPSFIHSQKRNPQTHLKDPDMVWDFWSLRPESLHQVSFLFSDRGIPDGHRHMNGYGSHTFKLVNANGEAVYCKFHYKTDQGIKNLSVEDAARLAHEDPDYGLRDLFNAIATGNYPSWTLYIQVMTFSEAEIFPFNPFDLTKVWPHGDYPLIPVGKLVLNRNPVNYFAEVEQLAFDPSNMPPGIEPSPDKMLQGRLFAYPDTHRHRLGPNYLQIPVNCPYRARVANYQRDGPMCMMDNQGGAPNYYPNSFSAPEHQPSALEHRTHFSGDVQRFNSANDDNVTQVRTFYLKVLNEEQRKRLCENIAGHLKDAQLFIQKKAVKNFSDVHPEYGSRIQALLDKYNEEKPKNAVHTYVQHGSHLSAREKANL
no binding: [1] | [2] | [3] | [4] | [5] | [6] | [7]

B2: rabbit fructose-bisphosphate aldolase A (enzyme, UniProt P00883 1-364)
chain: MPHSHPALTPEQKKELSDIAHRIVAPGKGILAADESTGSIAKRLQSIGTENTEENRRFYRQLLLTADDRVNPCIGGVILFHETLYQKADDGRPFPQVIKSKGGVVGIKVDKGVVPLAGTNGETTTQGLDGLSERCAQYKKDGADFAKWRCVLKIGEHTPSALAIMENANVLARYASICQQNGIVPIVEPEILPDGDHDLKRCQYVTEKVLAAVYKALSDHHIYLEGTLLKPNMVTPGHACTQKYSHEEIAMATVTALRRTVPPAVTGVTFLSGGQSEEEASINLNAINKCPLLKPWALTFSYGRALQASALKAWGGKKENLKAAQEEYVKRALANSLACQGKYTPSGQAGAAASESLFISNHAY
no binding: [1] | [2] | [3] | [4]

B3: rabbit fructose-bisphosphate aldolase A, P00883 1-364 (enzyme)
chain: MPHSHPALTPEQKKELSDIAHRIVAPGKGILAADESTGSIAKRLQSIGTENTEENRRFYRQLLLTADDRVNPCIGGVILFHETLYQKADDGRPFPQVIKSKGGVVGIKVDKGVVPLAGTNGETTTQGLDGLSERCAQYKKDGADFAKWRCVLKIGEHTPSALAIMENANVLARYASICQQNGIVPIVEPEILPDGDHDLKRCQYVTEKVLAAVYKALSDHHIYLEGTLLKPNMVTPGHACTQKYSHEEIAMATVTALRRTVPPAVTGVTFLSGGQSEEEASINLNAINKCPLLKPWALTFSYGRALQASALKAWGGKKENLKAAQEEYVKRALANSLACQGKYTPSGQAGAAASESLFISNHAY
no binding: [8]
